Measurements: the odorant receptor screen of Mainland et al. (2015)
Several values for one entry are separate records, joined by “and”; a condition that tells them apart may be missing. Equal entries are not always repeated. The list shows a part of the results. Single wells; the ratio to wells without odorant was worked out here, and repeats agree poorly.

Legend:
Test in all cases: odorant receptor activation (CRE luciferase / Renilla) (fold of no-odor wells); higher = more activation
Details in all cases: 100 µM
OR5AN1 clone 1245 = tested on: OR5AN1 clone 1245
OR5AP2 clone 1209 = tested on: OR5AP2 clone 1209
OR5AR1 clone 1207 = tested on: OR5AR1 clone 1207
OR5AS1 clone 1135 = tested on: OR5AS1 clone 1135
[1] = tested on: OR5AU1 L66F/I248V clone 1421
OR5AU1 clone 1344 = tested on: OR5AU1 clone 1344
OR5B17 clone 1220 = tested on: OR5B17 clone 1220
OR5B2 M200T clone 1246 = tested on: OR5B2 M200T clone 1246
OR5B21 I279F clone 1482 = tested on: OR5B21 I279F clone 1482
OR5B3 clone 1138 = tested on: OR5B3 clone 1138

| SMILES | odorant receptor activation (OR5AN1 clone 1245) | odorant receptor activation (OR5AP2 clone 1209) | odorant receptor activation (OR5AR1 clone 1207) | odorant receptor activation (OR5AS1 clone 1135) | odorant receptor activation [1] | odorant receptor activation (OR5AU1 clone 1344) | odorant receptor activation (OR5B17 clone 1220) | odorant receptor activation (OR5B2 M200T clone 1246) | odorant receptor activation (OR5B21 I279F clone 1482) | odorant receptor activation (OR5B3 clone 1138) |
| --- | --- | --- | --- | --- | --- | --- | --- | --- | --- | --- |
| COC(=O)c1ccccc1O [methyl salicylate] | 0.8 | 1.29 | 1.27 | 0.979 | 0.931 | 1.05 | 0.692 | 0.9 | 1.25 | 0.969 |
| C=CC(C)(O)CCC=C(C)C (configuration not stated) [linalool] | 0.838 | 1.07 | 1.06 | 0.887 | 0.923 | 0.888 | 0.925 | 1.1 | 1.04 | 0.823 |
| CC12CCC(CC1)C(C)(C)O2 [cineole] | 0.89 | 0.841 | 0.856 | 0.87 | 0.365 | 0.837 | 0.931 | 1.06 | 0.874 | 0.989 |
| C=CCc1ccc(O)c(OC)c1 [eugenol] | 1.24 and 1.25 | 2.42 and 1.41 | 1.17 and 1.46 | – | 1.02 and 1.44 | 1.78 and 1.18 | 1.78 and 1.05 | 2.19 and 1.12 | 1.86 and 1.24 and 1.21 | 2.96 and 1.33 |
| CC(C)C(=O)O [isobutyric acid] | 1.04 and 1 | 1.03 | 1.11 | 0.802 | 0.818 | 0.99 and 1.2 | 0.831 | 1.16 and 0.792 | 0.808 and 0.981 | 0.991 |
| CC(=O)OCC=C(C)CCC=C(C)C [geranyl acetate] | 0.741 and 1.97 | 0.932 | 1.21 | 1.05 | 1.08 | 0.927 and 1.15 | 0.757 | 0.891 and 1.3 | 0.74 and 1.63 | 1.05 |
| CCCCCCCOC(C)=O [heptyl acetate] | 0.69 and 2.03 | 0.716 | 1.15 | 0.99 | 1.06 | 0.827 and 0.862 | 0.81 | 1.33 and 1.2 | 0.975 and 1.15 | 1 |
| CCCCCC(C)=O [2-heptanone] | 1.08 | 0.811 | 1.22 | 1.34 | 0.807 | 0.9 | 0.967 | 1.64 | 0.695 and 0.699 | 1.42 |
| C=CCc1ccc(OC)c(OC)c1 [eugenol methyl ether] | 1.65 | 1.52 | 1.59 | 1.42 | 1.54 | 1.27 | 1.34 | 1.41 | 1.37 | 1.49 |
| CC12C=CCC1C1CCC3=CC(=O)CCC3(C)C1CC2 (configuration not stated) [androstadienone] | – | 1.02 | 1.28 | 0.936 | 0.952 | 1.1 and 1.02 | 1.02 | 1.23 and 1.07 | 0.875 and 1.43 | 1.19 |
| CCCC(=O)O [butyric acid] | 1.03 | 0.909 | 1.09 | 1.37 | 0.363 | 0.863 | 1.1 | 1.26 | 1.1 | 1.16 |
| COc1cc(C)ccc1O [2-methoxy-4-methylphenol] | 0.773 | 0.623 | 1.13 | 1.21 | 0.83 | 1 | 1.29 | 1.31 | 0.792 | 1.46 |
| CCCCCCCCCCC=O [undecanal] | 0.714 | 0.912 | 0.893 | 0.984 | 1.21 | 0.833 | 0.741 | 0.858 | 1.08 | 0.868 |
| CC1CCC(C(C)C)C(O)C1 (single isomer, unassigned; (+)) [(+)-menthol] | 0.76 | 0.855 | 1.36 | 1.37 | 1.14 | 0.926 | 1.21 | 0.908 | 1.04 | 1.32 |
| CCC1(O)C2(C)CCC(C2)C1(C)C (configuration not stated) [2-ethylfenchol] | 1.07 | 0.648 | 1.18 | 1.31 | 1.1 | 0.841 | 1.14 | 1.4 | 0.959 | 0.986 |
| C=C(C)C1CC=C(C)C(=O)C1 (configuration not stated) [r-carvone] | 0.637 | 1.1 | 0.834 | 1.02 | 1.35 | 0.739 | 0.909 | 0.665 | 1.09 | 1.04 |
| CC/C=C\CCO [cis-3-hexen-1-ol] | 0.766 | 0.869 | 0.932 | 1.21 | 0.458 | 0.799 | 1.02 | 0.979 | 0.922 | 1.08 |
| CC1CCC(C(C)C)C(O)C1 (single isomer, unassigned; (-)) [(-)-menthol] | 0.796 | 0.763 | 1.14 | 1.06 | 0.885 | 0.874 | 1.61 | 0.785 | 1.2 | 1.06 |
| CCCCCCC=O [heptaldehyde] | – | – | 0.46 and 1.03 | – | 0.765 and 0.839 | 0.533 and 1.13 and 1.11 | 0.247 and 0.627 | 0.521 and 0.741 and 0.91 | – | 0.443 and 0.959 |
| CC(C)C=O [isobutyraldehyde] | 1.04 and 1.1 | 0.892 | 1.11 | 1.03 | 0.889 | 1.47 and 1.18 | 0.778 | 0.851 and 0.889 | 1.05 and 1.19 | 1.09 |
| CC(=O)OC(C)(C)C1CC=C(C)CC1 (configuration not stated) [terpinyl acetate] | 0.829 | 1.28 | 1.5 | 1.1 | 1.18 | 0.834 | 0.989 | 0.699 | 0.962 | 1.39 |
| CC12CCC(C1)C(C)(C)C2=O (configuration not stated) [fenchone] | 0.985 | 0.993 | 1.14 | 0.958 | 1.13 | 0.864 | 0.783 | 0.888 | 1.2 | 1 |
| c1ccc(Oc2ccccc2)cc1 [diphenyl ether] | 0.944 | 1.05 | 1.1 | 1.1 | 1.07 | 1.02 | 0.889 | 0.949 | 1.18 | 0.949 |
| CC1COCc2cc3c(cc21)C(C)(C)C(C)C3(C)C (configuration not stated) [galaxolide] | – | 1.17 | 3.26 | 0.772 | 2.62 | 2.25 and 1.36 | 1.2 | 1.64 and 4.09 | – | 0.887 |
| CCCCCCCCCC=O [decyl aldehyde] | 1.2 | 1.2 | 1.37 | 1.24 | 1.56 | 1.02 | 1.26 | 1.26 | 1.09 | 1.18 |
| CCCCCCCCC=O [nonyl aldehyde] | 0.979 | 1.21 | 1.25 | 0.906 | 0.87 | 0.958 | 0.859 | 1.04 | 1.23 | 1 |
| CC(C)=CCCC(C)=CC=O [citral] | 1.1 | 0.95 | 1.11 | 1.02 | 0.446 | 0.897 | 1.09 | 1.42 | 1.09 | 1.15 |
| C=CCSCC=C [diallyl sulfide] | 1.01 | 1.02 | 1.1 | 1.13 | 1.37 | 0.854 | 0.839 | 0.872 | 1.36 | 0.864 |

Some of the entries so far, comma-delimited.
SMILES,odorant receptor activation (OR5AN1 clone 1245),odorant receptor activation (OR5AP2 clone 1209),odorant receptor activation (OR5AR1 clone 1207),odorant receptor activation (OR5AS1 clone 1135),odorant receptor activation [1],odorant receptor activation (OR5AU1 clone 1344),odorant receptor activation (OR5B17 clone 1220),odorant receptor activation (OR5B2 M200T clone 1246),odorant receptor activation (OR5B21 I279F clone 1482),odorant receptor activation (OR5B3 clone 1138)
CC(=O)OCC=C(C)CCC=C(C)C [geranyl acetate],0.741 and 1.97,0.932,1.21,1.05,1.08,0.927 and 1.15,0.757,0.891 and 1.3,0.74 and 1.63,1.05
CCCCCCCOC(C)=O [heptyl acetate],0.69 and 2.03,0.716,1.15,0.99,1.06,0.827 and 0.862,0.81,1.33 and 1.2,0.975 and 1.15,1
CCCCCC(C)=O [2-heptanone],1.08,0.811,1.22,1.34,0.807,0.9,0.967,1.64,0.695 and 0.699,1.42
C=CCc1ccc(OC)c(OC)c1 [eugenol methyl ether],1.65,1.52,1.59,1.42,1.54,1.27,1.34,1.41,1.37,1.49
CC12C=CCC1C1CCC3=CC(=O)CCC3(C)C1CC2 (configuration not stated) [androstadienone],–,1.02,1.28,0.936,0.952,1.1 and 1.02,1.02,1.23 and 1.07,0.875 and 1.43,1.19
